Reference: the supplement of paper PMC9015667
Counter-ions that a name gives are not always drawn. The list shows a part of the results. Single values are uncertain, as repeats are few or missing.

Tests used:
Assay in all cases: reduction in cell viability relative to untreated/vehicle; higher = more growth inhibition
Conditions in all cases: 200 nM; 72 h
[1] = tested on: M229P (parental melanoma line)
[2] = tested on: M229R (matched melanoma line resistant to BRAF inhibitors)
[3] = tested on: M238P (parental melanoma line)
[4] = tested on: M238R (matched melanoma line resistant to BRAF inhibitors)
[5] = tested on: M249P (parental melanoma line)
[6] = tested on: M249R (matched melanoma line resistant to BRAF inhibitors)
[7] = tested on: UACC62P (parental melanoma line)
[8] = tested on: UACC62R (matched melanoma line resistant to BRAF inhibitors)

Structure (SMILES)	reduction in cell viability [1] [%]	reduction in cell viability [2] [%]	reduction in cell viability [3] [%]	reduction in cell viability [4] [%]	reduction in cell viability [5] [%]	reduction in cell viability [6] [%]	reduction in cell viability [7] [%]	reduction in cell viability [8] [%]
O=C(O)CNC(=O)c1c(O)c2ccccc2n(Cc2ccccc2)c1=O	< 0	< 0	< 0	< 0	< 0	< 0	1	< 0
CN1[C@@H]2CC[C@H]1C[C@@H](OC(=O)C(CO)c1ccccc1)C2 (stereo partly specified) [Atropine]	< 0	< 0	< 0	< 0	< 0	< 0	1.53	< 0
CC(=O)N(C)c1cccc(-c2ccnc3c(C(=O)c4cccs4)cnn23)c1 [Indiplon]	< 0	< 0	< 0	< 0	< 0	< 0	< 0	< 0
CC(C)(C)[C@]1(O)CC2OC(=O)CC23C(=O)OC2OC(=O)[C@H](O)C231 (stereo partly specified) [Bilobalide]	< 0	< 0	< 0	< 0	< 0	< 0	< 0	< 0
C[C@]12CC[C@H](O)CC1=CC[C@@H]1[C@@H]2CC[C@]2(C)C(=O)CC[C@@H]12 [Dehydroepiandrosterone]	< 0	< 0	< 0	< 0	< 0	< 0	< 0	< 0
CCOC(=O)c1cncn1[C@H](C)c1ccccc1 [Etomidate]	< 0	< 0	< 0	< 0	< 0	< 0	< 0	< 0
CC(=O)O[C@H]1C[C@@H]2CC[C@@H]3[C@H](CC[C@@]4(C)[C@H]3C[C@H]([N+]3(C)CCCCC3)[C@@H]4OC(C)=O)[C@@]2(C)C[C@@H]1[N+]1(C)CCCCC1 [Pancuronium bromide]	< 0	< 0	11.2	< 0	< 0	< 0	0.6	< 0
CCNC(=O)C[C@H]1N=C(c2ccc(Cl)cc2)c2cc(OC)ccc2-n2c(C)nnc21	< 0	< 0	< 0	< 0	< 0	< 0	< 0	< 0
CC1C=CC=CCCC=CC=CC=CC=CC(OC2OC(C)C(O)C(N)C2O)CC2OC(O)(CC(O)C(O)CCC(O)CC(O)CC(O)CC(=O)OC(C)C(C)C1O)CC(O)C2C(=O)O (stereo unspecified) [Nystatin]	< 0	< 0	< 0	< 0	< 0	< 0	< 0	< 0
C/C=C(\C)C(=O)N[C@@H](c1ccccc1)[C@@H](O)C(=O)O[C@H]1C[C@@]2(O)[C@@H](OC(=O)c3ccccc3)[C@@H]3[C@]4(OC(C)=O)CO[C@@H]4C[C@H](O)[C@@]3(C)C(=O)[C@H](OC(C)=O)C(=C1C)C2(C)C [Cephalomannine]	31.9	50.2	79.6	74.5	54.2	59	40.7	76.4
CC1=NN=C(c2ccc(N)cc2)c2cc3c(cc2C1)OCO3	< 0	< 0	< 0	< 0	< 0	< 0	26.1	3.83
c1ccc(CCCN2CCN(CCOC(c3ccccc3)c3ccccc3)CC2)cc1	< 0	< 0	< 0	< 0	< 0	< 0	8.75	< 0
C[C@]12CC[C@H]3[C@@H](CCC4=CC(=O)CC[C@@H]43)[C@@H]1CC[C@@H]2OC(=O)CCc1ccccc1 [Nandrolone phenpropionate]	< 0	< 0	< 0	< 0	< 0	< 0	< 0	< 0
NCC1(CC(=O)O)CCCCC1 [Gabapentin]	< 0	< 0	< 0	< 0	< 0	< 0	2.4	< 0
CC1=C2C[C@H]3[C@@H](CC=C4C[C@@H](O)CC[C@@]43C)[C@@H]2CC[C@]12O[C@@H]1C[C@H](C)CN[C@H]1[C@H]2C [Cyclopamine]	< 0	< 0	< 0	< 0	< 0	< 0	< 0	< 0
COc1ccc(C(CN(C)C)C2(O)CCCCC2)cc1 (stereo unspecified) [Venlafaxine hydrochloride]	< 0	< 0	< 0	< 0	< 0	< 0	< 0	< 0
O=C(NCC1CCOCC1)c1cnc(Nc2ccc(Cl)cc2Cl)nc1C(F)(F)F	< 0	< 0	< 0	< 0	< 0	12.3	11.4	< 0
N=C1NC(=O)N2CC12 (stereo unspecified) [Imexon]	< 0	< 0	< 0	< 0	< 0	2	1.82	< 0
O=c1[nH]c2ccc(Cl)cc2c(N[C@@H]2CN3CCC2CC3)c1-c1nc2ccccc2[nH]1	48.1	80.5	68.9	47.4	< 0	12.4	11.1	65

A section from further up, for reference:
Structure (SMILES)	reduction in cell viability [1] [%]	reduction in cell viability [2] [%]	reduction in cell viability [3] [%]	reduction in cell viability [4] [%]	reduction in cell viability [5] [%]	reduction in cell viability [6] [%]	reduction in cell viability [7] [%]	reduction in cell viability [8] [%]
CC(C)(C)[C@]1(O)CC2OC(=O)CC23C(=O)OC2OC(=O)[C@H](O)C231 (stereo partly specified) [Bilobalide]	< 0	< 0	< 0	< 0	< 0	< 0	< 0	< 0
C[C@]12CC[C@H](O)CC1=CC[C@@H]1[C@@H]2CC[C@]2(C)C(=O)CC[C@@H]12 [Dehydroepiandrosterone]	< 0	< 0	< 0	< 0	< 0	< 0	< 0	< 0
CCOC(=O)c1cncn1[C@H](C)c1ccccc1 [Etomidate]	< 0	< 0	< 0	< 0	< 0	< 0	< 0	< 0

Continued.

Structure (SMILES)	reduction in cell viability [1] [%]	reduction in cell viability [2] [%]	reduction in cell viability [3] [%]	reduction in cell viability [4] [%]	reduction in cell viability [5] [%]	reduction in cell viability [6] [%]	reduction in cell viability [7] [%]	reduction in cell viability [8] [%]
N[C@@H]1C[C@H]1c1ccccc1.N[C@H]1C[C@@H]1c1ccccc1 [Tranylcypromine]	< 0	< 0	< 0	< 0	< 0	< 0	< 0	< 0
C[C@@]12C(=O)OC(=O)[C@]1(C)[C@H]1CC[C@@H]2O1 [Cantharidin]	< 0	< 0	< 0	< 0	< 0	< 0	< 0	< 0
Cc1ccccn1.N.[Cl-].[Cl-].[Pt+2] [Picoplatin]	< 0	< 0	< 0	< 0	< 0	< 0	14.4	< 0
COc1cc([C@@H]2c3cc4c(cc3[C@H](O)[C@H]3COC(=O)[C@H]23)OCO4)cc(OC)c1OC [Podofilox]	31.9	45	48.3	56.9	43.2	43.9	56.8	85.3
C[C@H]([C@H](O)CCC(C)(C)O)[C@H]1CC[C@@]2(O)C3=CC(=O)[C@@H]4C[C@@H](O)[C@@H](O)C[C@]4(C)[C@H]3CC[C@]12C [Ecdysone]	< 0	< 0	< 0	< 0	< 0	2.13	1.22	< 0
C[C@]12CC[C@H]3[C@@H](CC[C@@]45O[C@@H]4C(O)=C(C#N)C[C@]35C)[C@@H]1CC[C@@H]2O [Trilostane]	< 0	< 0	< 0	< 0	< 0	< 0	1.91	< 0
COc1cc([C@@H]2c3cc4c(cc3[C@H](O)[C@H]3COC(=O)[C@@H]23)OCO4)cc(OC)c1OC [Picropodophyllin]	32.6	56.4	62.9	60.4	32.2	40.3	39.8	71
C=C[C@H]1CN2CC[C@H]1C[C@H]2[C@H](O)c1ccnc2ccccc12 [Cinchonidine]	< 0	< 0	< 0	< 0	< 0	< 0	< 0	< 0
CCc1c(C(=O)C(N)=O)c2c(OCC(=O)O)cccc2n1Cc1ccccc1 [Varespladib]	< 0	< 0	< 0	< 0	< 0	< 0	< 0	< 0
Fc1ccc(C(OCCN2CCN(CCCc3ccccc3)CC2)c2ccc(F)cc2)cc1	< 0	< 0	< 0	< 0	< 0	13.5	< 0	< 0
CC1(C)CC(O)CC(C)(C)N1[O] [Tempol]	< 0	< 0	< 0	< 0	< 0	< 0	< 0	< 0
O=S(=O)(CC1CS1)c1ccc(Oc2ccccc2)cc1 (stereo unspecified)	< 0	< 0	< 0	< 0	< 0	< 0	< 0	< 0
COc1ccc2c(c1)[C@@]13CCCC[C@H]1[C@@H](C2)N(C)CC3 [Levomethorphan]	< 0	< 0	< 0	< 0	< 0	< 0	< 0	< 0
CCC(=O)O[C@H]1CC[C@H]2[C@@H]3CCC4=CC(=O)CC[C@]4(C)[C@H]3CC[C@]12C [Testosterone propionate]	< 0	< 0	< 0	< 0	< 0	< 0	< 0	< 0
O=C1CCC[C@@H]2[C@H]3CCCN4CCC[C@@H](CN12)[C@@H]34 [Matrine]	< 0	< 0	< 0	< 0	< 0	< 0	< 0	< 0
C[C@H]1CCC/C=C/[C@@H]2C[C@H](O)C[C@H]2[C@H](O)/C=C/C(=O)O1 [Cyanein]	56.7	60.1	46.8	49.4	58.5	76.9	49.2	54.3
CCN1CCN(C(=O)Cc2ccc(Nc3ncc(F)c(Nc4ccc(C(=O)Nc5ccccc5Cl)cc4)n3)cc2)CC1 [Aurora A Inhibitor I]	12.6	16.1	19.2	< 0	2.86	< 0	38	74.2
C[C@]12O[C@H](C[C@]1(O)CO)n1c3ccccc3c3c4c(c5c6ccccc6n2c5c31)CNC4=O [Lestaurtinib???]	< 0	42.8	32.2	13.2	15.6	37.8	36.7	10.8
COC[C@@H](NC(C)=O)C(=O)NCc1ccccc1 [Lacosamide]	< 0	< 0	< 0	< 0	< 0	< 0	< 0	< 0

Structure (SMILES)	reduction in cell viability [1] [%]	reduction in cell viability [2] [%]	reduction in cell viability [3] [%]	reduction in cell viability [4] [%]	reduction in cell viability [5] [%]	reduction in cell viability [6] [%]	reduction in cell viability [7] [%]	reduction in cell viability [8] [%]
CCC1(c2ccc(N)cc2)CCC(=O)NC1=O (stereo unspecified) [Aminoglutethimide]	< 0	< 0	< 0	< 0	< 0	< 0	< 0	< 0
C[C@]12CC[C@H]3[C@@H](CCC4=CC(=O)CC[C@@]43C)[C@@H]1CC[C@@H]2O [Testosterone]	< 0	< 0	< 0	< 0	< 0	< 0	< 0	< 0
C[C@H]1[C@@H](CC(C[C@H]2O[C@@H]3O[C@]4(C)CC[C@H]5[C@H](C)CC[C@@H]([C@H]2C)[C@@]35OO4)CS(=O)(=O)c2ccc(COC(=O)N(C)C)cc2)O[C@@H]2O[C@]3(C)CC[C@H]4[C@H](C)CC[C@@H]1[C@@]24OO3 (stereo partly specified) [ASR-isobudimer-SO2Ph-4-CH2OC(O)NMe2]	13.4	2.93	28.6	22.1	53.8	49.2	34.2	77.3
C/C(=C\c1csc(C)n1)[C@@H]1C[C@@H]2O[C@]2(C)CCC[C@H](C)[C@H](O)[C@@H](C)C(=O)C(C)(C)[C@@H](O)CC(=O)O1 [Epothilone B]	27.2	44.3	80.1	75.6	57	49.8	47.2	87.7
CC(C)NC1CCn2c(=O)[nH]c3cccc(c32)C1O (stereo unspecified) [Zilpaterol]	< 0	< 0	< 0	< 0	< 0	< 0	< 0	< 0
CN1C(=O)COc2c(C(=O)NC3CN4CCC3CC4)cc(Cl)cc21 (stereo unspecified) [Azasetron]	< 0	< 0	< 0	< 0	< 0	< 0	4.09	< 0
C[C@@H]1CC[C@@]2(OC1)O[C@H]1C[C@H]3[C@@H]4CC=C5C[C@@H](O[C@@H]6O[C@H](CO)[C@@H](O[C@@H]7O[C@@H](C)[C@H](O)[C@@H](O)[C@H]7O)[C@H](O)[C@H]6O[C@@H]6O[C@@H](C)[C@H](O)[C@@H](O)[C@H]6O)CC[C@]5(C)[C@H]4CC[C@]3(C)[C@H]1[C@@H]2C [Dioscin]	< 0	< 0	< 0	< 0	< 0	< 0	< 0	< 0
C#CCN(C)[C@H](C)Cc1ccccc1 [Selegiline hydrochloride]	< 0	< 0	< 0	4.66	< 0	< 0	10.6	< 0
CC[C@@]1([C@@H]2O[C@@H]([C@H]3O[C@@](O)(CO)[C@H](C)C[C@@H]3C)C[C@@H]2C)CC[C@H]([C@]2(C)CC[C@]3(C[C@H](O)[C@@H](C)[C@@H]([C@@H](C)[C@@H](OC)[C@H](C)C(=O)O)O3)O2)O1 [Monensin sodium salt]	20.1	20.7	32.5	< 0	< 0	< 0	12.6	17.9
CNC(=O)c1ccc(N2C(=S)N(c3ccc(C#N)c(C(F)(F)F)c3)C(=O)C23CCC3)cc1F	< 0	< 0	< 0	< 0	< 0	< 0	< 0	< 0
N#C[C@H](O[C@@H]1O[C@H](CO[C@@H]2O[C@H](CO)[C@@H](O)[C@H](O)[C@H]2O)[C@@H](O)[C@H](O)[C@H]1O)c1ccccc1 [Amygdalin]	< 0	< 0	< 0	< 0	< 0	< 0	< 0	< 0
C=C1C[C@@H]2[C@H](CC[C@]3(C)C(=O)CC[C@@H]23)[C@@]2(C)C=CC(=O)C=C12 [Exemestane]	< 0	< 0	< 0	< 0	< 0	< 0	7.48	< 0
O=C1CC[C@@]2(O)[C@H]3Cc4ccc(O)c5c4[C@@]2(CCN3CC2CC2)[C@H]1O5 [Naltrexone hydrochloride]	< 0	< 0	< 0	< 0	< 0	4.24	< 0	< 0
CC(=O)O[C@@]12CO[C@@H]1C[C@H](O)[C@@]1(C)C(=O)[C@H](O)C3=C(C)[C@@H](O)C[C@@](O)([C@@H](OC(=O)c4ccccc4)[C@H]21)C3(C)C [10-Deacetylbaccatin]	< 0	< 0	< 0	< 0	< 0	2.99	6.45	< 0
O=C(O)c1nn(Cc2ccc(Cl)cc2Cl)c2ccccc12 [Lonidamine]	< 0	< 0	< 0	< 0	13.4	< 0	< 0	< 0
C[C@@H]1CC[C@H]2[C@@H](C)C(=O)O[C@@H]3O[C@@]4(C)CC[C@@H]1[C@]32OO4 [Artemisinin]	< 0	< 0	< 0	< 0	< 0	5.44	< 0	< 0
Cc1c(C(=O)Nc2cccc(C(F)(F)F)c2)cc(-c2ccccc2)n1CCCN1CCOCC1	< 0	< 0	< 0	72.9	2.14	< 0	32.2	< 0
COC1(C[S@+]([O-])c2ccccc2)CCN(CCc2c[nH]c3ccc(F)cc23)CC1	< 0	< 0	< 0	< 0	< 0	< 0	< 0	< 0
COc1ccc(N(C(=O)Oc2c(C)cccc2C)c2ccnc(Nc3ccc(N4CCN(C)CC4)cc3)n2)c(OC)c1	< 0	< 0	< 0	< 0	< 0	< 0	< 0	< 0
